# Measurements reported in the supplement of paper PMC7666118.
# Sequences of proteins named here, by UniProt entry; tags and fusion partners are left off. A change or cut given only in a name is not applied to a line headed by its entry.
# UniProt Q9Y3D0: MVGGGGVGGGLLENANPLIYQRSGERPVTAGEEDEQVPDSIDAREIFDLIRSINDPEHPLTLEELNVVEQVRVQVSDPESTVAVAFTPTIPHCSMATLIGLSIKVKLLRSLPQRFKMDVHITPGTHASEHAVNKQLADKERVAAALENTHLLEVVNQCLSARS
# UniProt Q96PY5, whole entry: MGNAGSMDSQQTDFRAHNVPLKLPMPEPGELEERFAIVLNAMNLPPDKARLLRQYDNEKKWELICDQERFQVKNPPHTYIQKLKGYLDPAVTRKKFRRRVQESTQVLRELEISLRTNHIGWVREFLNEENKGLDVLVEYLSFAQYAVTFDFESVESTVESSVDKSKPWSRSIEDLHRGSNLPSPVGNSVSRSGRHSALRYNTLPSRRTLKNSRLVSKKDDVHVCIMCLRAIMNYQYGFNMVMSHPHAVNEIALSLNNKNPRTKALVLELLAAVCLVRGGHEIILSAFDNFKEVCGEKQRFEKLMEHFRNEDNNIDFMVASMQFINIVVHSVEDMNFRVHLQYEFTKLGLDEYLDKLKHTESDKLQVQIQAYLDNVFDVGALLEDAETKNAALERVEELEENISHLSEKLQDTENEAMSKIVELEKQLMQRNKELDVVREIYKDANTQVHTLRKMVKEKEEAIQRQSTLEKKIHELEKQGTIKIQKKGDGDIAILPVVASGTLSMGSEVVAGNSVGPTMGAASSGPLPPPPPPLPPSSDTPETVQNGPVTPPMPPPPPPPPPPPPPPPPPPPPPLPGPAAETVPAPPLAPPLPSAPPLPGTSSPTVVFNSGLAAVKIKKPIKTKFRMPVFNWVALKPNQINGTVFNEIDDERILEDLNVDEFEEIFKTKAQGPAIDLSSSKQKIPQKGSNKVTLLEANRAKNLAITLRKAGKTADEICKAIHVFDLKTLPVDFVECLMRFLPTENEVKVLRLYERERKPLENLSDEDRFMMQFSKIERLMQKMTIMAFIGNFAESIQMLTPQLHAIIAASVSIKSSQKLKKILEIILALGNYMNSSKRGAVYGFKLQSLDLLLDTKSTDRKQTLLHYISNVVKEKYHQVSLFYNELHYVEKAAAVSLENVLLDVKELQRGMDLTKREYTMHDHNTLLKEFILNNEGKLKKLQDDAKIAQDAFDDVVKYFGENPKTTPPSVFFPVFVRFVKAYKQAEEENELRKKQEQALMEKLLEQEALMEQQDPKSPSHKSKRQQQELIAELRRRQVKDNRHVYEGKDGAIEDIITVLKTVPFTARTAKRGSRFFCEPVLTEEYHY
# UniProt Q86SF2: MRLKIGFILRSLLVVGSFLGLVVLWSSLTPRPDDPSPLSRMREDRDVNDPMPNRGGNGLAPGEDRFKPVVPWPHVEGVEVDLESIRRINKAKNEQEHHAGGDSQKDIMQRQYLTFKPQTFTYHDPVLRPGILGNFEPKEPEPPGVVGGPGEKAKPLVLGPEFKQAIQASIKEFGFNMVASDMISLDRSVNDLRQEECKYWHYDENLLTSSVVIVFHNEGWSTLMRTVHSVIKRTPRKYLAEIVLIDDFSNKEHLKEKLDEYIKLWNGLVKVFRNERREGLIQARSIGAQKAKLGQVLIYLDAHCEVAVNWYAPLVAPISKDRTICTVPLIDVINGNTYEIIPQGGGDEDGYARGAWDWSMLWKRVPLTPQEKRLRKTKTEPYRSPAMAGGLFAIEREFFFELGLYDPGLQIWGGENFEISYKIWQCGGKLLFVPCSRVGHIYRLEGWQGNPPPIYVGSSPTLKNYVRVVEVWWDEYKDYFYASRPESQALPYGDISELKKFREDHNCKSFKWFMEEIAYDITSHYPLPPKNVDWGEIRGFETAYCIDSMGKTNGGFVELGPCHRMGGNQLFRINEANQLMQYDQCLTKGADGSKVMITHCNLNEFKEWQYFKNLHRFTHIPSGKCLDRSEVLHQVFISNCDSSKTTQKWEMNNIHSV
# UniProt Q9BPY3: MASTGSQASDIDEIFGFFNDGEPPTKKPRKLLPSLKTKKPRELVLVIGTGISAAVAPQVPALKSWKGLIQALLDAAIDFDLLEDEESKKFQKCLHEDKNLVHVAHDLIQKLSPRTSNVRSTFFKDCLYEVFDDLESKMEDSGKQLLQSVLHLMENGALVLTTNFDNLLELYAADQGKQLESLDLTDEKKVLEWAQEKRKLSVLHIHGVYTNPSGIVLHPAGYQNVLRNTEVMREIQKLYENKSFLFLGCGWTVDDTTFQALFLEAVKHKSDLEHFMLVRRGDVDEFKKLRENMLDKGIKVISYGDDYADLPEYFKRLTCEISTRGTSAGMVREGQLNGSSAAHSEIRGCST
# UniProt Q8NFF5: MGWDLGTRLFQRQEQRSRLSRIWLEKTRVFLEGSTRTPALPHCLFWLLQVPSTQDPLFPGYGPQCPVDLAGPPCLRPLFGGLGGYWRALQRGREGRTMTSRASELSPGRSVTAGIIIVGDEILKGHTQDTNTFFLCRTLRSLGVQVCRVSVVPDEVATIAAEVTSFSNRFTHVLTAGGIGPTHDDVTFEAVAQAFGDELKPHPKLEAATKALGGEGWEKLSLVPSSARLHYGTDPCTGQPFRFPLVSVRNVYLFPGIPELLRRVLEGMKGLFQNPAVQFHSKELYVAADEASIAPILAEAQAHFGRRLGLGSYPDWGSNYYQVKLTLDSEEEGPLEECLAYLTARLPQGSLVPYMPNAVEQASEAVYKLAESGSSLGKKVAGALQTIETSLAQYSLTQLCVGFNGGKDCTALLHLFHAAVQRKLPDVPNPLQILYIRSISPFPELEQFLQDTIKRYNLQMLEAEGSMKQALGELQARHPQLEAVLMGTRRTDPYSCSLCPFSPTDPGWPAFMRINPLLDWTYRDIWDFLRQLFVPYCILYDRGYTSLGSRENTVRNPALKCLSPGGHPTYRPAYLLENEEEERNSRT
# UniProt Q96BN8, whole entry: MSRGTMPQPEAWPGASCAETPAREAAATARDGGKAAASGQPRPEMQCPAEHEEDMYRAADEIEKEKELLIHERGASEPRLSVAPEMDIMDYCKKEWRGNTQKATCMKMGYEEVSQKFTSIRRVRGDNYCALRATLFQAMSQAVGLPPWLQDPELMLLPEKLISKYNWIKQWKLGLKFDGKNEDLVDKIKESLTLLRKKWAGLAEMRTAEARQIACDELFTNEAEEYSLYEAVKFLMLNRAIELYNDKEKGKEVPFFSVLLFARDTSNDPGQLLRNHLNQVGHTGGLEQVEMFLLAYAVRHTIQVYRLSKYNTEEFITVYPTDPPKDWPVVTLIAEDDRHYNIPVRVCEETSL
# UniProt Q13283, whole entry, looked up: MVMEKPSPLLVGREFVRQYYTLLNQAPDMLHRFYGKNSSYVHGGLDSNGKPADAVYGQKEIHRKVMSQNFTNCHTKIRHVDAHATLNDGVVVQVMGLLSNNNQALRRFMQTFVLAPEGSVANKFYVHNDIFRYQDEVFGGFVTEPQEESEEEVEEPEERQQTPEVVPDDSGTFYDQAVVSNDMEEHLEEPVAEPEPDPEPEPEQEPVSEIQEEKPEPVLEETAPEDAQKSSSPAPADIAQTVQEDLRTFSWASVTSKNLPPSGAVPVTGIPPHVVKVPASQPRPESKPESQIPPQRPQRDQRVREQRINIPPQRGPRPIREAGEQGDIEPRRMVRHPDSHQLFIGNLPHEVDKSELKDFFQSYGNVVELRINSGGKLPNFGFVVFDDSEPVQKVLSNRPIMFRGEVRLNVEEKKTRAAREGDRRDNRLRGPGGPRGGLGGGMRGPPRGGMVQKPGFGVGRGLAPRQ
# UniProt Q9C073: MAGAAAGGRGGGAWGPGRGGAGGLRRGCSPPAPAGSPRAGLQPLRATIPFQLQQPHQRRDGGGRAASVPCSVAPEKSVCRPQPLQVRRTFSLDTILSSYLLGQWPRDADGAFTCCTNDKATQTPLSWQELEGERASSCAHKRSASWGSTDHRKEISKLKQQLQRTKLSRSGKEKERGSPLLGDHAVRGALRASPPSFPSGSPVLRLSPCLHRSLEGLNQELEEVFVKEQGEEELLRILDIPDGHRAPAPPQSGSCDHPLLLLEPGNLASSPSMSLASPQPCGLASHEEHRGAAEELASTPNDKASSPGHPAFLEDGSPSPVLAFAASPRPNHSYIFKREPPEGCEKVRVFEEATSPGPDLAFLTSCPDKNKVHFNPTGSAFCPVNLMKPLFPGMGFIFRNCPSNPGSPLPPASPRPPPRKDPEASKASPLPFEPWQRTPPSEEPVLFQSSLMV
# UniProt P22083, whole entry: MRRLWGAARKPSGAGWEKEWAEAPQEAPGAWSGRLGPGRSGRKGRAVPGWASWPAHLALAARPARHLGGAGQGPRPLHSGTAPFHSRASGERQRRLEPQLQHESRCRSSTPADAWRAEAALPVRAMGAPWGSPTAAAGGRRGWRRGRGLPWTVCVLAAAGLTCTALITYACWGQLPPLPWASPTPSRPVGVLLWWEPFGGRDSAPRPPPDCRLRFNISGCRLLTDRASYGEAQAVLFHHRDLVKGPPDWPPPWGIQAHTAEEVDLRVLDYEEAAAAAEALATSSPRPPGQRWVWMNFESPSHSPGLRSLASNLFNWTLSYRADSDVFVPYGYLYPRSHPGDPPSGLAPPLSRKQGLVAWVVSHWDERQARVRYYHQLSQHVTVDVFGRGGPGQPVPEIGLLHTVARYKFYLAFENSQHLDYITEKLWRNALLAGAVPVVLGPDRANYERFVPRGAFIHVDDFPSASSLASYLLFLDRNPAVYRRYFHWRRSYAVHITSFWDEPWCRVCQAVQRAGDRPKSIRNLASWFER
# UniProt Q9NVI1: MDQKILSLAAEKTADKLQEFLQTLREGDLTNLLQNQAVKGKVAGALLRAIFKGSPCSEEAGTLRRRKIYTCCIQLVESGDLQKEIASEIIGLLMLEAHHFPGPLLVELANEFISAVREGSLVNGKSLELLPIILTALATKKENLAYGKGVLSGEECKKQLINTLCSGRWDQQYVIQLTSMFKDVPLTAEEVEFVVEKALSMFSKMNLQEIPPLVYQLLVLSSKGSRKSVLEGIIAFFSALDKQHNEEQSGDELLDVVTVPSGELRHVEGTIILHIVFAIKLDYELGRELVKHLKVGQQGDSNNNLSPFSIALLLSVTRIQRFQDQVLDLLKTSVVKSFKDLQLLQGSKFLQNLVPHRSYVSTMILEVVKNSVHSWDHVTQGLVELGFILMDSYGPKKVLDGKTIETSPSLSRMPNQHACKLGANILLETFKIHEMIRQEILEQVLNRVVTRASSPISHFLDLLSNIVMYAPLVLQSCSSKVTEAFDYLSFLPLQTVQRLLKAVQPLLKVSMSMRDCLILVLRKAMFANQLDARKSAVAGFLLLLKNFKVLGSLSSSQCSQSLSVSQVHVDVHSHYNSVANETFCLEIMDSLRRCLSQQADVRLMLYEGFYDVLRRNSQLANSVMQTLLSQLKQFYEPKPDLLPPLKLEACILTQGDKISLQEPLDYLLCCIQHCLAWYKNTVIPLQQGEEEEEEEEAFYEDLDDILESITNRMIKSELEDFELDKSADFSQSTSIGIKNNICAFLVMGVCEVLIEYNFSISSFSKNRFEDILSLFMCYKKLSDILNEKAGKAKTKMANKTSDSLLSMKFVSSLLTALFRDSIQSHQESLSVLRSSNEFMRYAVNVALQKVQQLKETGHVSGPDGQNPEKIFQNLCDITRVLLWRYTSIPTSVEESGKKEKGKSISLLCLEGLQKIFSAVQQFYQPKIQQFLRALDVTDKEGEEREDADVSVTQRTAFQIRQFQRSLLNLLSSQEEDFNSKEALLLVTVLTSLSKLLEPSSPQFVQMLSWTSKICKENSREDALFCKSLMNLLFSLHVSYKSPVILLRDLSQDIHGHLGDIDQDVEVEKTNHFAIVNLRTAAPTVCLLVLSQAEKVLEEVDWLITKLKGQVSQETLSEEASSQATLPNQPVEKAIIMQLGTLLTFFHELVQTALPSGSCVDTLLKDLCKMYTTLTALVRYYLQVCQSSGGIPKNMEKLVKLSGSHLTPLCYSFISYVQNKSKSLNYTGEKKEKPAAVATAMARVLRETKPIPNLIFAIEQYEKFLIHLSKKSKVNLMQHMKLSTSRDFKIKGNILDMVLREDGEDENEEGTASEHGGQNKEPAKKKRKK
# UniProt Q96PZ2, whole entry: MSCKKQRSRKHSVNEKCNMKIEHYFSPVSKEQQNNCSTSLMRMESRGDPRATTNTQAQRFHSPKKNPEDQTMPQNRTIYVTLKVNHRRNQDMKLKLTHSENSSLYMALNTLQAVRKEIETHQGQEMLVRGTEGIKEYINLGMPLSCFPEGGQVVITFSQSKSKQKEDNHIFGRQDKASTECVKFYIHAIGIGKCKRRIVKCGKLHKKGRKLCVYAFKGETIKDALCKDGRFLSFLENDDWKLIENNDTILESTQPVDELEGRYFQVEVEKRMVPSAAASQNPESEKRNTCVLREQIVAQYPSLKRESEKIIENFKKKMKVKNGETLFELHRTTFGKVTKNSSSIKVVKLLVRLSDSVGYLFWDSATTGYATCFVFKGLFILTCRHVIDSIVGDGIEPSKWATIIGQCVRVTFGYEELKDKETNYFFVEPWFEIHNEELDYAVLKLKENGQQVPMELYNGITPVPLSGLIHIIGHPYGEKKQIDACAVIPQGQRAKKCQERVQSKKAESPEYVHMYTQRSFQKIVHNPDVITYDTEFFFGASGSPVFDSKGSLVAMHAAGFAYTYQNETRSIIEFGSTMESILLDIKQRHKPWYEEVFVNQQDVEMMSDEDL
# Some of the results follow.
# Compound: COc1ccc(Cn2ccc3ccc(C(=O)NO)cc32)cc1
# Experiment: dose-dependent thermal stabilisation call (2D-TPP, DLPTP, 10% FDR) (binary (1 = stabilised)); higher = stabilised by the compound
# Conditions: system: HL-60 intact cells; concentration range 0.04-10 µM
row,Target,dose-dependent thermal stabilisation call
1,GARS (UniProt P41250),inactive: 0
2,FAM96B (UniProt Q9Y3D0),inactive: 0
3,FMNL2 (UniProt Q96PY5),inactive: 0
4,GALNT7 (UniProt Q86SF2),inactive: 0
5,FEN1 (UniProt P39748),inactive: 0
6,FBXL10 (UniProt Q8NHM5),inactive: 0
7,FADS1 (UniProt O60427),inactive: 0
8,FNTA (UniProt P49354),inactive: 0
9,FAM118B (UniProt Q9BPY3),inactive: 0
10,FLAD1 (UniProt Q8NFF5),inactive: 0
11,FARS2 (UniProt O95363),inactive: 0
12,FAM105B (UniProt Q96BN8),inactive: 0
13,FAM98B (UniProt Q52LJ0),inactive: 0
14,FAM175B (UniProt Q15018),inactive: 0
15,EXOSC4 (UniProt Q9NPD3),inactive: 0
16,FNDC3B (UniProt Q53EP0),inactive: 0
17,GBAS (UniProt O75323),inactive: 0
18,EXT2 (UniProt Q93063),inactive: 0
19,FAM118A (UniProt Q9NWS6),inactive: 0

row,Target,dose-dependent thermal stabilisation call
1,GALNT3 (UniProt Q14435),inactive: 0
2,FGD3 (UniProt Q5JSP0),inactive: 0
3,GCA (UniProt P28676),inactive: 0
4,EXOC6 (UniProt Q8TAG9),inactive: 0
5,G3BP1 (UniProt Q13283),inactive: 0
6,GARNL1 (UniProt Q6GYQ0),inactive: 0
7,FAM117A (UniProt Q9C073),inactive: 0
8,FRYL (UniProt O94915),inactive: 0
9,FUT4 (UniProt P22083),inactive: 0
10,FANCI (UniProt Q9NVI1),inactive: 0
11,G3P1_HUMAN,inactive: 0
12,FAM116A (UniProt Q8IWF6),inactive: 0
13,FAM111A (UniProt Q96PZ2),inactive: 0
14,GBP2 (UniProt P32456),inactive: 0
15,GADD45GIP1 (UniProt Q8TAE8),inactive: 0
16,FAM164A (UniProt Q96GY0),inactive: 0
17,FBXL8 (UniProt Q96CD0),inactive: 0
18,EZR (UniProt P15311),inactive: 0
19,FLJ40125,inactive: 0

# Already shown: an excerpt of the list.
row,Target,dose-dependent thermal stabilisation call
3,GCA (UniProt P28676),inactive: 0
4,EXOC6 (UniProt Q8TAG9),inactive: 0
5,G3BP1 (UniProt Q13283),inactive: 0
